Protein sequences, listed by entry. Tags and fused reporters are not part of them. Lines headed by an entry give the natural chain unless they say otherwise; changes in a name come on top.
UniProt Q8GY55: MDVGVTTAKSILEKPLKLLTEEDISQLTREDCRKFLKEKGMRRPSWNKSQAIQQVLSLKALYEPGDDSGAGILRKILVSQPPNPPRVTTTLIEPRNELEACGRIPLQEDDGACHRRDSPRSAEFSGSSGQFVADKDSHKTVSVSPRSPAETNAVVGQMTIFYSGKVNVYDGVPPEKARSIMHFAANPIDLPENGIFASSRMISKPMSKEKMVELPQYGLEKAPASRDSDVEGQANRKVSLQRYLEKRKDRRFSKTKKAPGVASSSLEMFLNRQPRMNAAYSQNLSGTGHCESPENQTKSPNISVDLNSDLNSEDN
UniProt Q9SV55: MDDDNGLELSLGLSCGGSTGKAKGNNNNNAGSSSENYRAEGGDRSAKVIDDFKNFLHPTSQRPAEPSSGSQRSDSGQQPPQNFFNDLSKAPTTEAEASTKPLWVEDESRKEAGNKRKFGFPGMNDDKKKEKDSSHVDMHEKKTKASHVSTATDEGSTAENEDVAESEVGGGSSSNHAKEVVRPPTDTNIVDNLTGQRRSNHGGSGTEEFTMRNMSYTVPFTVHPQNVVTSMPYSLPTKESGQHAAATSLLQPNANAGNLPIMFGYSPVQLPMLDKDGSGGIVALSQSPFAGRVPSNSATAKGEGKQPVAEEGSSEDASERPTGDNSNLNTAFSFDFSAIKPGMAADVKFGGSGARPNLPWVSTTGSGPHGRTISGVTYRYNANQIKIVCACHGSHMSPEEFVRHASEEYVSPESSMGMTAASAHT
UniProt Q84MB2: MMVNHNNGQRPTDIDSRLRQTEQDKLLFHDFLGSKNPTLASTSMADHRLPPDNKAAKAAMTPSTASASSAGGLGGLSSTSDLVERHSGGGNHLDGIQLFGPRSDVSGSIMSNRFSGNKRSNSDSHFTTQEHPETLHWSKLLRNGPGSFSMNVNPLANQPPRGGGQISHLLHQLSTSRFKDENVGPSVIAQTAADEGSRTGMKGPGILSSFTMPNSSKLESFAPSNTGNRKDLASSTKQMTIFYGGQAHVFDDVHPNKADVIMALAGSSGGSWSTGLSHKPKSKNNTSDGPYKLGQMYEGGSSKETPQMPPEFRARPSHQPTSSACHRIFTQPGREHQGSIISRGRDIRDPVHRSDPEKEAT

According to PMC3885651:

Experiments:
[1] = target: PEAPOD2 (PPD2), yeast two-hybrid fusion (Arabidopsis thaliana) (UniProt Q8GY55); test: two-hybrid; S. cerevisiae PJ69-4A co-transformed with pGADT7 and pGBKT7 fusions; growth on SD lacking Leu, Trp and His (-3) against control (-2); 2 days at 30°C; empty vectors as controls
[2] = target: NOVEL INTERACTOR OF JAZ (NINJA), yeast two-hybrid fusion (Arabidopsis thaliana) (UniProt Q9SV55); test: as above

binding [1]: binds | binding [2]: binds
Substance: ZIM domain of TIFY8 (truncation, yeast two-hybrid fusion) (from UniProt Q84MB2) (domain or fragment)

These are yes or no findings as the source states them, for the method shown. Binding can be weak; no strength is given.
